The values that follow come from paper doi:10.1101/2023.10.03.560778.

By UniProt entry, the sequences of proteins in these tests, tags left out.
UniProt O32164: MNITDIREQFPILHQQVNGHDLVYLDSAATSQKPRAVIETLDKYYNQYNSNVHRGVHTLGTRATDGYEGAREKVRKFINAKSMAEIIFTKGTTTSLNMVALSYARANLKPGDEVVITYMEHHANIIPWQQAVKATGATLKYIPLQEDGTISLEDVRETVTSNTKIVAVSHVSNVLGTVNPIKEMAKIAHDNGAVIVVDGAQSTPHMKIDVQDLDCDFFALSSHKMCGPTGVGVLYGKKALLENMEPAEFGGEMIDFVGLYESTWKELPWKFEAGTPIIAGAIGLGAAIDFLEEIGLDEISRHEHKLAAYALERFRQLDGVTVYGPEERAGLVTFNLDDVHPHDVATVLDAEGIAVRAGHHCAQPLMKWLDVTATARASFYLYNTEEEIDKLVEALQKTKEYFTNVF

Sequences and labels used below:
T1: YFP-YlaN (Bacillus subtilis YlaN with N-terminally fused YFP) (B. subtilis) (UniProt O07638)
T1 sequence: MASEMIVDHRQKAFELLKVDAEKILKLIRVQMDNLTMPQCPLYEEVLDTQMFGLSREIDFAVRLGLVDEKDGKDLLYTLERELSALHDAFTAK

B1: CitB (Fe-requiring protein), Bacillus subtilis (protein, UniProt P09339 1-909)
chain: MANEQKTAAKDVFQARKTFTTNGKTYHYYSLKALEDSGIGKVSKLPYSIKVLLESVLRQVDGFVIKKEHVENLAKWGTAELKDIDVPFKPSRVILQDFTGVPAVVDLASLRKAMAAVGGDPDKINPEIPVDLVIDHSVQVDKAGTEDALAVNMDLEFERNAERYKFLSWAKKAFNNYQAVPPATGIVHQVNLEFLASVVHAIEEDGELVTYPDTLVGTDSHTTMINGIGVLGWGVGGIEAEAGMLGQPSYFPVPEVIGAKLVGKLPNGTTATDLALKVTQVLREKGVVGKFVEFFGPGIAELPLADRATIANMAPEYGATCGFFPVDEEALNYLRLTGRDPEHIDVVEAYCRSNGLFYTPDAEDPQFTDVVEIDLSQIEANLSGPKRPQDLIPLSAMQETFKKQLVSPAGNQGFGLNAEEENKEIKFKLLNGEETVMKTGAIAIAAITSCTNTSNPYVLIGAGLVAKKAVELGLKVPNYVKTSLAPGSKVVTGYLVNSGLLPYMKELGFNLVGYGCTTCIGNSGPLSPEIEEAVAKNDLLITSVLSGNRNFEGRIHPLVKGNYLASPPLVVAYALAGTVNINLKTDPIGVGKDGQNVYFNDIWPSMDEINALVKQTVTPELFRKEYETVFDDNKRWNEIETTDEALYKWDNDSTYIQNPPFFEEMSVEPGKVEPLKGLRVVGKFGDSVTTDHISPAGAIGKDTPAGKYLQEKGVSPRDFNSYGSRRGNHEVMMRGTFANIRIKNQIAPGTEGGFTTYWPTGEVTSIYDACMKYKEDKTGLVVLAGKDYGMGSSRDWAAKGTNLLGIRTVIAESFERIHRSNLVFMGVLPLQFKQGENADTLGLTGKEVIEVDVDETVRPRDLVTVRAINEDGNVTTFEAVVRFDSEVEIDYYRHGGILQMVLREKMKQS
B2: Fur (ferric uptake regulator), Bacillus subtilis (protein, UniProt P54574 1-149)
chain: MENRIDRIKKQLHSSSYKLTPQREATVRVLLENEEDHLSAEDVYLLVKEKSPEIGLATVYRTLELLTELKVVDKINFGDGVSRYDLRKEGAAHFHHHLVCMECGAVDEIEEDLLEDVEEIIERDWKFKIKDHRLTFHGICHRCNGKETE
B3: SufU (FeS cluster synthesis machinery SufCDSUB), Bacillus subtilis (protein, UniProt O32163 1-147)
chain: MSFNANLDTLYRQVIMDHYKNPRNKGVLNDSIVVDMNNPTCGDRIRLTMKLDGDIVEDAKFEGEGCSISMASASMMTQAIKGKDIETALSMSKIFSDMMQGKEYDDSIDLGDIEALQGVSKFPARIKCATLSWKALEKGVAKEEGGN
B4: QcrA (Fe-requiring protein), Bacillus subtilis (protein, UniProt P46911 1-167)
chain: MGGKHDISRRQFLNYTLTGVGGFMAASMLMPMVRFALDPVLKSTGKQDMVQVVSVDELTKEPQRFDFKINQVDAWYESEESRSAWVFKNGDEIVALSPICKHLGCTVNWNSDPKNPNKFFCPCHYGLYEKDGTNVPGTPPLAPLDHYEQEVKDGFLYLGKAKPKGEG
B5: SufC (FeS cluster synthesis machinery SufCDSUB), Bacillus subtilis (protein, UniProt P80866 1-261)
chain: MAASTLTIKDLHVEIEGKEILKGVNLEIKGGEFHAVMGPNGTGKSTLSAAIMGHPKYEVTKGSITLDGKDVLEMEVDERAQAGLFLAMQYPSEISGVTNADFLRSAINARREEGDEISLMKFIRKMDENMEFLEMDPEMAQRYLNEGFSGGEKKRNEILQLMMIEPKIAILDEIDSGLDIDALKVVSKGINKMRSENFGCLMITHYQRLLNYITPDVVHVMMQGRVVKSGGAELAQRLEAEGYDWIKQELGIEDETVGQEA
B6: SufD (FeS cluster synthesis machinery SufCDSUB), Bacillus subtilis (protein, UniProt O32165 1-437)
chain: MTLGTKLSVDQEYLKSFSEKHQEPAWLKNLRLQALEQAEDLPMPKPDKTKITNWNFTNFAKHTVDNEPLSSLEDLTDEVKALIDIENEDKTLYVQRDQTPAHLSLSQELKDKGVIFTDILTAAREHSDLVEKYFMKDGVKVDEHKLTALHAALVNGGAFLYVPKNVQVETPVQAVYVHESNDTALFNHVLIVAEDHSSVTYVENYISTVNPKDAVFNIISEVITGDNASVTYGAVDNLSSGVTTYVNRRGAARGRDSKIEWALGLMNDGDTISENTTNLYGDGTYGDTKTVVVGRGEQTENFTTQIIHFGKASEGYILKHGVMKDSASSIFNGIGKIEHGASKANAEQESRVLMLSEKARGDANPILLIDEDDVTAGHAASVGRVDPIQLYYLMSRGIPKEEAERLVIYGFLAPVVNELPIEGVKKQLVSVIERKVK
B7: GlcF (Fe-requiring protein), Bacillus subtilis (protein, UniProt P94534 1-444)
chain: MTTEKEMKQIQNEFKERMDEGELLNCMRCGFCLPSCPTYIESGFQETHSPRGRIALMKAVADGMIEPDEDVERSLSLCLGCRACEPVCPSGVKYGQLLEEARDIIHQNKKHSLGERVMRKTAFHELFPHQNRMRSAVSLIGLYQRSGLQTAVRKSGMLRVLPEHLRTMEAVLPDVPKSKDMKHRPRFLPSIGPMKKRVAFFSGCLMDTMFLPTNNATLKLLQLAGCDIVIPPEQACCGALHGHSGEKNTGKELAKQNIAAFEALDVDAVITNAGGCGAFLTEYDHLLKDDPEWSERAAAFVQKLKDFSSVLVELDFHQMDLALETPQVVTYQDSCHLRNVMHTSLEPRQLLKSIKGAEFKEMEKADSCCGSAGIYNIVEVEMSMKILDSKMAAVKATEAILIVTANPGCLLQMKLGIEREGLSGKVRAVHLADLLLEAAGHKTS
B8: SufA (FeS cluster assembly factor), Bacillus subtilis (protein, UniProt O32113 1-120)
chain: MSNPVTITEAAALHIKDMMKEHEEENAFLRVGVKGGGCSGLSYGMGFEHEKSESDSVFDQHGITVLVDKESLDIMNGTVIDYKQSMLGGGFTIDNPNAIASCGCGSSFRTATNAGKPEEC
B9: SufB (FeS cluster synthesis machinery SufCDSUB), Bacillus subtilis (protein, UniProt O32162 1-465)
chain: MAKKMPDIGEYKYGFHDKDVSIFRSERGLTKEIVEEISRMKEEPQWMLDFRLKSLEHFYNMPMPQWGGDLNSLNFDEITYYVKPSERSERSWDEVPEEIKQTFDKLGIPEAEQKYLAGVSAQYESEVVYHNMKEDLEAQGIVFKDTDSALKENEDIFREHWAKVIPPTDNKFAALNSAVWSGGSFIYVPKGVKVETPLQAYFRINSENMGQFERTLIIVDEEASVHYVEGCTAPVYTTNSLHSAVVEIIVKKGGYCRYTTIQNWANNVYNLVTKRTVCEENATMEWIDGNIGSKLTMKYPACILKGEGARGMTLSIALAGKGQHQDAGAKMIHLAPNTSSTIVSKSISKQGGKVTYRGIVHFGRKAEGARSNIECDTLIMDNKSTSDTIPYNEILNDNISLEHEAKVSKVSEEQLFYLMSRGISEEEATEMIVMGFIEPFTKELPMEYAVEMNRLIKFEMEGSIG
B10: NarH (Fe-requiring protein), Bacillus subtilis (protein, UniProt P42176 1-487)
chain: MKIKAQIGMVMNLDKCIGCHTCSVTCKNTWTNRSGAEYMYFNNVETKPGIGYPKQWEDQDKYKGGWTLKKGKLELKSGSKTNRLAGLFYNPNQPSIDDYYEPWNYDYETLTNSPQKKHQPVARPKSSLTGDFMNIEWGPNWEDDLAGGHITGLEDPNVQKMEESIKTEFDDVFMMYLPRICEHCINPACVSSCPSGAMYKREEDGIVLVDQNACRSWRYCVSSCPYKKVYFNWQTNKAEKCTLCFPRLEAGLPTICSETCVGRIRYLGVMLYDADKVEEAASVENEKDLYHSQLDVFLDPNDPEVAKLAKEQGIPAEWIEAAQQSPIYKMIIDWKIALPLHPEYRTLPMVWYIPPLSPIMNLFEGKGSRQTAEDIFPAIDQMRIPIDYLAQLLTAGDTDHIRSTLKKMSVMRQYMRAVQTNKSIDPELISSVGLTEQQIEDMYRLLAIAKYDDRFVIPSSHREEVSDLYAEQGSCGLSFSGGPGSCF

These are yes or no findings as the source states them, for the method shown. In cells and extracts the contact can be indirect. These calls come from enrichment with a bait or labelling near it, and not all partners need be listed. Where a sequence is shown, tags or fusion partners need not be part of it.

The target of the experiment is T1, YFP-YlaN (Bacillus subtilis YlaN with N-terminally fused YFP) (B. subtilis). In words: affinity purification with mass spectrometry.
For “SufT (FeS cluster assembly factor), Bacillus subtilis (B. subtilis (endogenous in BD8592))”, the binding result was “binds”.

With “SufS (FeS cluster synthesis machinery SufCDSUB), Bacillus subtilis (from UniProt O32164 1-406)”, the binding result is “binds”.

B1: the binding result is on record as “binds”.

For the molecule B2, the binding entry is recorded as “binds”.

On to B3, for which the binding entry is listed as “binds”.

With B4, the binding entry is “binds”.

For B5, the binding result was “binds”.

In the case of B6, the binding entry is given as “binds”.

With B7, the binding result is “binds”.

Turning to B8, the binding result is “binds”.

Consider B9, for which the binding entry is “binds”.

B10: the binding result was “binds”.
